At least one peptide structure holds a part that was inferred or is arguable (an end, a ring closure or a residue). Positions of bridges follow the written chain, without caps; N, C: chain ends. Residues, ends and D or L forms follow the SMILES beside them. No end group written: not given here.
What was measured:
[1] = tested on: ovariectomized (OVX) rats; experiment: Growth of trabeculae in the distal femurs of ovariectomized (OVX) rats, injections week 9 to 15 after OVX; format: in vivo; conditions: 5 nmoles/100 g of body weight s.c. daily, FIG. 8, in words
Text: Rats were OVXed (OVX) or sham-OVXed (sham) and given daily subcutaneous injections of vehicle between the end of the 9th week and the end of the 15th week after OVX. Injection quantities were 5 nmoles/100 g of body weight. OVXed rats received daily subcutaneous injections of: vehicle (OVX), hPTH(1-31)NH2, 5 nmol (linear), [Leu^27 ]cyclo(Glu^22 -Lys^26)hPTH(1-28)NH2, 5 nmol (cyclic), or [Glu^17,Leu^27]cyclo(Lys^13 -Glu^17,Glu^22 Lys^26)hPTH(1-31)NH2, 5nmol(double cyclic). The femurs were demineralized and stained with Sanderson's rapid bone stain. […] This improvement is not correlated with their relative AC-stimulating activities, but likely results from greater stability to proteolytic attack and greater ability to be transported from the site of injection.

[2] = tested on: ovariectomized rat model for osteoporosis; experiment: Anabolic activity in ovariectomized rat model for osteoporosis, preventative protocol (trabecular thickness); format: in vivo, Sprague-Dawley rats; conditions: OVXed rats

Row | Molecule | increasing the thickness of the remaining trabeculae [1] | dose required for bone restoration ([2]; s.c. once daily, 6 days per week for 6 weeks, data not shown) | anabolic (bone growth-stimulating) activity ([2]; trabecular thickness, in words)
1 | CC[C@H](C)[C@H](NC(=O)[C@H](CCC(=O)O)NC(=O)[C@H](CO)NC(=O)[C@@H](NC(=O)[C@@H](N)CO)C(C)C)C(=O)N[C@@H](CCC(N)=O)C(=O)N[C@@H](CC(C)C)C(=O)N[C@@H](CCSC)C(=O)N[C@@H](Cc1c[nH]cn1)C(=O)N[C@@H](CC(N)=O)C(=O)N[C@@H](CC(C)C)C(=O)NCC(=O)N[C@@H](CCCCN)C(=O)N[C@@H](Cc1c[nH]cn1)C(=O)N[C@@H](CC(C)C)C(=O)N[C@@H](CC(N)=O)C(=O)N[C@@H](CO)C(=O)N[C@@H](CCSC)C(=O)N[C@@H](CCC(=O)O)C(=O)N[C@@H](CCCNC(=N)N)C(=O)N[C@H](C(=O)N[C@H]1CCC(=O)NCCCC[C@@H](C(=O)N[C@@H](CC(C)C)C(=O)N[C@@H](CC(C)C)C(=O)N[C@@H](CCC(N)=O)C(=O)N[C@@H](CC(=O)O)C(=O)N[C@H](C(N)=O)C(C)C)NC(=O)[C@H](CCCNC(=N)N)NC(=O)[C@H](CC(C)C)NC(=O)[C@H](Cc2c[nH]c3ccccc23)NC1=O)C(C)C [[Leu^27]cyclo(Glu^22 -Lys^26)hPTH(1-31)NH2] (H-SVSEIQLMHNLGKHLNSMERVEWLRKLLQDV-NH2; lactam 22-26) | significantly better than the linear molecule |  | 
2 | SVSEIQLMHNLGKHLNSMERVEWLRKKL-NH2 [hPTH(1-28)NH2] |  | 25 nmol/100 g body weight | low activity

— US6316410A, “Parathyroid hormone analogues for the treatment of osteoporosis” (National Research Council of Canada, priority 1999, dated 2001)
